Results are given in words; binding and its absence hold for the method and conditions named. In cells and extracts the contact can be indirect. These calls come from enrichment with a bait or labelling near it, and not all partners need be listed.
Key:
[1] = biological target: FLAG-SLC3A2 WTseq (human) (UniProt P08195); assay: affinity purification with mass spectrometry
[2] = biological target: FLAG-SLC3A2 A273N (human) (UniProt P08195); assay: affinity purification with mass spectrometry

Chains of the proteins cited; added tags and fusions are not shown. Lines headed by an entry give the natural chain unless they say otherwise; changes in a name come on top. Residues count along the entry.
UniProt P08195, 66-630, stated change not applied: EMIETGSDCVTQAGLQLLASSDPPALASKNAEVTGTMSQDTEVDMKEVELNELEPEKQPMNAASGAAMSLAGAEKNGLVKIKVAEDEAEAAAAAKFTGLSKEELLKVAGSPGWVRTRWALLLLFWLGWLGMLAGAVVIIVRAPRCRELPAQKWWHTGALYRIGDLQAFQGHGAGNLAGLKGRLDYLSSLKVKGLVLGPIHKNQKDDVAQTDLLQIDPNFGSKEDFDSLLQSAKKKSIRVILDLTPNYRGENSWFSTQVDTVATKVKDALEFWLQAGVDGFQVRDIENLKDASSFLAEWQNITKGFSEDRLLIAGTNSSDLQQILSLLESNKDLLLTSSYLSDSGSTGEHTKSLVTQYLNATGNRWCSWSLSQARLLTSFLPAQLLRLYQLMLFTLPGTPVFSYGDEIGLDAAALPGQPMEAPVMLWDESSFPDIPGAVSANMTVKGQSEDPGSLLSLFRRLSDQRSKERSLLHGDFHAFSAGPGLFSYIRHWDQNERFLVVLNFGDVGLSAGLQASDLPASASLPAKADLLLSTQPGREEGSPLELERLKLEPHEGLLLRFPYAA
UniProt P08195, whole entry, looked up, stated change not applied: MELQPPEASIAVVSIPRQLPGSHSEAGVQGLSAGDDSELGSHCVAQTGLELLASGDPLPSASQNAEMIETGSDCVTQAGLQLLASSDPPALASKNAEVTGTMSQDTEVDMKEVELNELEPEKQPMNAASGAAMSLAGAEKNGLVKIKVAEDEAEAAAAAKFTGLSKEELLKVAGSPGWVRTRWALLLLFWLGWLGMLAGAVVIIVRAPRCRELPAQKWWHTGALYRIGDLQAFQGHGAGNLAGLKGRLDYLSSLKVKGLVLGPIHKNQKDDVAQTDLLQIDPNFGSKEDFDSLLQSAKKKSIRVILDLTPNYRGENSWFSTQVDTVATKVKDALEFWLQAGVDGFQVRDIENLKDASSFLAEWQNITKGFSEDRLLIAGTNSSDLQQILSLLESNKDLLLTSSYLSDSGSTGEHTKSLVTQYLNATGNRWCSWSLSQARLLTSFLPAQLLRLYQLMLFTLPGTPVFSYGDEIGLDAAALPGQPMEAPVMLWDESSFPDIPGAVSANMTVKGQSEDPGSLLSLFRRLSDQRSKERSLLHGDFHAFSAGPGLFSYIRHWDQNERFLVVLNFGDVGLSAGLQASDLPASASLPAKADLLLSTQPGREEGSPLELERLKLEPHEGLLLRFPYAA

With ATP1B3 (from UniProt P54709 1-279) the binding [1] was “binds”.

HSP90AA1 (from UniProt P07900 1-732) was tested, and the binding [2] was “binds” and the binding [1] was “binds”.
